Measurements: PubChem BioAssay AID504648 (National Center for Advancing Translational Sciences (NCATS), 2011)
The campaign covered roughly 390,000 compounds. About 610 (0.16%) were called active. This list was built around the results that the source calls inconclusive (neither active nor inactive); the mix of calls is not that of the screen. Calls come from the whole dose curve; as a rule, active = well fitted inhibition curve with a large enough effect; inconclusive = small, poorly fitted or top-dose-only effect, or effect the other way, or another doubt; inactive = no such curve, though single readings can be large or run the other way. Potencies beside an inconclusive call are fits to weak or partial responses and may not hold up.

Test: Nrf2 qHTS screen for inhibitors: counterscreen for cytotoxicity
Conditions: A549 ARE-Fluc cells, CellTiter-Fluor viability, 18-24 h; series mostly up to 46 µM
In short: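 A549 ARE-Fluc cells in 5% FBS OPTI-MEM, 5000 cells/well, rested 2 h then exposed to compounds in concentration-response for 18-24 h at 37 °C. Viability by CellTiter-Fluor fluorescence (Ex 405/Em 525) after 30 min; luciferase luminescence (BugLite, 15 min, RT) read afterwards.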
Potency is the fitted concentration of half-maximal effect.

For `CN(C)NC(=S)NC1CC2CCC1C2` (centres undefined), which Potency is on record?
Its Potency is “inactive”.

With `CCOC(=O)C1=C(C)Nc2ccccc2N=C1NC(=O)Cc1ccc(Cl)c(Cl)c1` as the compound, how does the Potency read?
Its Potency is inconclusive: 14.6 µM [activator, partial curve, poor fit].

For `COc1ccc(C(=O)N(Cc2nc(-c3ccc(C)cc3)no2)C2CCCCC2)cc1OC`, which Potency is on record?
Its Potency is inconclusive: 29.1 µM [falling, single point].

Which Potency does the source give for `N#CC1=C(SCC(=O)c2ccc(Br)cc2)NC2=C(C(=O)CCC2)C1c1ccco1` (centres undefined) here?
The Potency was inconclusive: 20.6 µM [falling, partial curve].

With `O=S(=O)(c1cccs1)N1CCN(c2nc(-c3cccs3)nc3ccccc23)CC1` as the compound, how does the Potency read?
Its Potency is “inactive”.

Which Potency does the source give for `CCOC(=O)N1C=CC=C[C@@H]2[C@@H](N3C(=O)c4ccccc4C3=O)C(=O)N21` here?
Its Potency is “inactive”.

With `CN(C)c1ccc2nc3c(=O)[nH]c(=O)nc-3n(CC(O)C(O)C(O)CO)c2c1` (centres undefined) as the compound, how does the Potency read?
Its Potency is active: 10.3 µM.

Which Potency does the source give for `COc1ccccc1-c1c(C)nn2c(N3CCN(c4ccc(F)cc4)CC3)cc(C)nc12` here?
Its Potency is “inactive”.

For `O=C(c1ccccc1)c1ccc(OCCCN2CCCCC2)cc1`, which Potency is on record?
The Potency was “inactive”.

Which Potency does the source give for `Cc1nn(CCO)c(N)c1C1(O)C(=O)Nc2c(Cl)cc(Cl)cc21` (centres undefined) here?
Its Potency is “inactive”.

Which Potency does the source give for `CCOC(=O)C(NC(C)=O)C(=O)Nc1ccc(C(C)C)cc1` (centres undefined) here?
Its Potency is inconclusive: 5.8 µM [activator, single point].

With `Cc1nc(N2CCOCC2)c2cc(-c3ccccc3)sc2n1` as the compound, how does the Potency read?
The Potency was inconclusive: 2.59 µM [activator, full curve].

With `ON=C1c2cc(OCCN3CCCCC3)ccc2-c2ccc(OCCN3CCCCC3)cc21` as the compound, how does the Potency read?
The Potency was inconclusive: 23.1 µM [falling, single point].

Which Potency does the source give for `Cc1nc2c(o1)C(=O)c1ccccc1C2=Nc1ccccc1` here?
Its Potency is inconclusive: 29.1 µM [falling, single point].

Which Potency does the source give for `O=C(/C=C/C=C/c1ccccc1)c1ccco1` here?
The Potency was “inactive”.

Which Potency does the source give for `COc1ccc(OCc2cc(C(=O)NCC3CCCCO3)no2)c(Cl)c1` (centres undefined) here?
Its Potency is “inactive”.

With `O=C(CCC(=O)N1CCN(c2ccccn2)CC1)c1cccs1` as the compound, how does the Potency read?
Its Potency is inconclusive: 0.0651 µM [activator, full curve, poor fit].

Which Potency does the source give for `COc1cc(NC(=O)c2ccc(Cl)cc2Cl)ccc1-c1cc2ccccc2oc1=O` here?
The Potency was inconclusive: 16.4 µM [activator, single point].

With `COc1ccc(/C=N/N=C2/NC(=O)C(CC(=O)NC(C)C)S2)cc1` (centres undefined) as the compound, how does the Potency read?
The Potency was “inactive”.

With `Cc1cccc(NC(=O)c2ccc(Cn3nc(N4CCN(c5ccccc5)CC4)ccc3=O)o2)c1C` as the compound, how does the Potency read?
Its Potency is inconclusive: 32.6 µM [falling, partial curve, poor fit].

With `COc1ccccc1C1(CC(=O)N2CCCCC2)CCOC(C(C)C)C1` (centres undefined) as the compound, how does the Potency read?
The Potency was inconclusive: 29.1 µM [falling, single point].

For `COc1cccc2c1C(=O)c1c(O)c3c(c(O)c1C2=O)CC(O)(C(C)=O)CC3OC1CC(N(C)C)C(O)C(C)O1` (centres undefined), which Potency is on record?
The Potency was inconclusive: 10.3 µM [falling, partial curve].

With `Cc1ccc(N/C=C/C(=O)c2sc(-c3ccccc3)nc2C)cc1` as the compound, how does the Potency read?
The Potency was inconclusive: 23.1 µM [falling, single point].

Which Potency does the source give for `O=C(Nc1cc(OC(=O)C(F)(F)F)c2nonc2c1OC(=O)C(F)(F)F)C(F)(F)F` here?
The Potency was inconclusive: 18.4 µM [falling, partial curve].

Which Potency does the source give for `Cn1nc(C(=O)NCc2ccccc2Cl)c2c1-c1ccccc1SC2` here?
Its Potency is “inactive”.

For `COc1ccc(-c2nn(C)c(=O)c3ccccc23)cc1NC(=O)Cn1nc(C)c2ccccc2c1=O`, which Potency is on record?
The Potency was “inactive”.

With `C=CCC[C@@H](Cc1ccc(F)cc1)C(=O)OC[C@@H](NC(=O)[C@H](CC=C)CC(=O)N(CCO)Cc1ccccc1)c1ccccc1` as the compound, how does the Potency read?
Its Potency is inconclusive: 18.4 µM [falling, single point].

Which Potency does the source give for `N#CC1=C(N)N2C(=C(C#N)C1c1ccc(Br)cc1)Nc1ccccc12` (centres undefined) here?
Its Potency is inconclusive: 13 µM [falling, partial curve].

With `Cc1ccccc1C(=O)NCC(C)NC(=O)c1ccccc1C` (centres undefined) as the compound, how does the Potency read?
The Potency was “inactive”.

For `COc1cc(NC(=O)c2ccccc2Cl)c2ncccc2c1`, which Potency is on record?
Its Potency is inconclusive: 29.1 µM [falling, partial curve, poor fit].

For `CCSc1nc2sc3c(c2c(=O)n1-c1ccc(C)c(Cl)c1)CCN(C(C)=O)C3`, which Potency is on record?
The Potency was inconclusive: 20.6 µM [falling, partial curve, poor fit].

Which Potency does the source give for `O=C1COc2ccc(C(=O)CSc3nc4ccccc4c(=O)n3-c3ccc(Cl)c(Cl)c3)cc2N1` here?
Its Potency is inconclusive: 11.6 µM [falling, partial curve, poor fit].

For `CC1CCC(C(C)C)C(OCC(O)CN2CCN(Cc3ccccc3)CC2)C1` (centres undefined), which Potency is on record?
Its Potency is inconclusive: 25.9 µM [falling, single point].

Which Potency does the source give for `O=C(c1ccc(Cl)cc1)C1CCCN(Cc2cccn2-c2cccnc2)C1` (centres undefined) here?
Its Potency is “inactive”.

For `O=[N+]([O-])c1ccc(Sc2cc[n+]([O-])c3ccccc23)c([N+](=O)[O-])c1`, which Potency is on record?
The Potency was inconclusive: 23.1 µM [falling, single point].

With `Cc1ccc(NS(=O)(=O)c2cccc(C(=O)NCC3(N(C)C)CCCCC3)c2)cc1` as the compound, how does the Potency read?
Its Potency is inconclusive: 18.4 µM [falling, partial curve].

Which Potency does the source give for `CCCOc1ccc(C(=O)C(CCC(CNCC)C(=O)c2ccc(OCCC)cc2)CNCC)cc1` (centres undefined) here?
The Potency was inconclusive: 18.4 µM [falling, single point].

Which Potency does the source give for `CC(C)(C)Nc1nc(N2CCCC2)nc(N2CCCC2)n1` here?
The Potency was active: 14.6 µM.

For `CC1CC(C)CN(C(=O)C(C)N2CCN(S(=O)(=O)c3ccc(C(F)(F)F)cc3)CC2)C1` (centres undefined), which Potency is on record?
The Potency was inconclusive: 29.1 µM [falling, partial curve, poor fit].

For `COCC(=O)Nc1nc2ccccc2s1`, which Potency is on record?
The Potency was “inactive”.

Which Potency does the source give for `CCC1CCCCN1S(=O)(=O)c1ccc(C(=O)Nc2nnc(-c3cccs3)o2)cc1` (centres undefined) here?
Its Potency is inconclusive: 12.6 µM [falling, partial curve, poor fit].

For `O=C1Nc2ccccc2/C1=N\N=C\c1ccc(O)c(O)c1`, which Potency is on record?
The Potency was inconclusive: 32.6 µM [falling, partial curve, poor fit].

For `COc1ccc(OC)c(CNc2ncnc3onc(C)c23)c1`, which Potency is on record?
The Potency was “inactive”.

For `CCOC(=O)C1(CCOC)CCN(Cc2ccccc2-c2ccco2)CC1`, which Potency is on record?
Its Potency is “inactive”.

Which Potency does the source give for `Cc1ccccc1C(=O)Nc1c(C(=O)N2CCCC2)cnn1-c1ccccc1` here?
The Potency was inconclusive: 10.3 µM [activator, partial curve, poor fit].

With `O=C(CN1CCN(Cc2ccccc2)CC1)N1CCCc2c1c(=O)oc1ccc(O)cc21` as the compound, how does the Potency read?
Its Potency is inconclusive: 29.1 µM [falling, single point].

For `COc1cc(OC)cc(-c2c(-c3ccc(C(C)=O)cc3)c3cc(-c4cccc5[nH]ccc45)ccc3n2C)c1`, which Potency is on record?
Its Potency is inconclusive: 23.1 µM [activator, partial curve, poor fit].

Which Potency does the source give for `COc1ccc(NC(=O)COc2ccccc2Cc2ccccc2)cc1S(N)(=O)=O` here?
Its Potency is inconclusive: 10.3 µM [falling, partial curve, poor fit].

For `CCN(c1cc(C)cc(C)c1)S(=O)(=O)c1nnc(NC(=O)c2ccccc2C)s1`, which Potency is on record?
Its Potency is inconclusive: 20.6 µM [falling, partial curve, poor fit].

Which Potency does the source give for `Cc1ccc2nc(N3C(=O)C(O)=C(C(=O)c4ccc(C)o4)C3c3cccc(O)c3)sc2c1` (centres undefined) here?
The Potency was inconclusive: 29.1 µM [falling, single point].

For `COc1ccc(OCC(O)Cn2c(Br)nc3c2c(=O)[nH]c(=O)n3C)cc1` (centres undefined), which Potency is on record?
Its Potency is inconclusive: 23.1 µM [falling, partial curve, poor fit].

For `O=C1C2C3C=CC(C3)C2C(=O)N1c1nccs1` (centres undefined), which Potency is on record?
Its Potency is inconclusive: 29.1 µM [falling, partial curve, poor fit].

For `CCCN(CCC)CCN1C(=O)C2C(C(=O)Nc3cccc(SC)c3)C3C=CC2(O3)C1C(=O)NC1CCCCC1` (centres undefined), which Potency is on record?
The Potency was inconclusive: 13 µM [falling, partial curve, poor fit].

For `COc1ccc(NS(=O)(=O)c2ccc(NC(=S)NC(=O)CC(C)C)cc2)cc1`, which Potency is on record?
Its Potency is inconclusive: 29.1 µM [falling, single point].

Which Potency does the source give for `O=C(O)c1ccc(N/N=C/c2cc3c(cc2[N+](=O)[O-])OCO3)cc1` here?
Its Potency is inconclusive: 18.4 µM [falling, single point].

For `CCCOc1ccc(C2=NNC(=O)CC2)cc1`, which Potency is on record?
The Potency was inconclusive: 0.517 µM [activator, full curve, poor fit].

Which Potency does the source give for `Cc1nnc(SCC(=O)N2c3ccccc3C(C)(c3ccccc3)CC2(C)C)s1` (centres undefined) here?
Its Potency is inconclusive: 18.4 µM [falling, single point].

Which Potency does the source give for `COc1ccc(CCN=c2c([N+](=O)[O-])nn(-c3cccc(C)c3)n2O)cc1OC` here?
Its Potency is inconclusive: 14.6 µM [falling, partial curve, poor fit].

With `N#CCCN(C(=O)COC(=O)c1cccc(S(=O)(=O)N2CCCCCC2)c1)c1ccc(F)cc1` as the compound, how does the Potency read?
The Potency was inconclusive: 14.6 µM [activator, partial curve, poor fit].

For `COc1ccc(NC(=O)CN2C(=O)NC3(CCCCCC3)C2=O)cc1Cl`, which Potency is on record?
The Potency was inconclusive: 18.4 µM [falling, partial curve, poor fit].

For `COc1ccc(S(=O)(=O)Nc2ccc(F)cc2)c(C)c1C`, which Potency is on record?
Its Potency is inconclusive: 25.9 µM [falling, partial curve, poor fit].

With `CC(=O)Oc1ccc(C(=O)Nc2cccc(-c3nnc(-c4ccco4)o3)c2)cc1` as the compound, how does the Potency read?
The Potency was inconclusive: 29.1 µM [falling, single point].

Which Potency does the source give for `CC1CCCCN1CC(O)COCCC12CC3CC(CC(C3)C1)C2` (centres undefined) here?
Its Potency is inconclusive: 18.4 µM [falling, partial curve, poor fit].

Which Potency does the source give for `Cc1c(Cl)cccc1NC(=O)CSc1ncc(S(=O)(=O)c2ccc(C(C)C)cc2)c(=O)[nH]1` here?
Its Potency is “inactive”.
